This is one part of the list.
How the values were obtained:
Test in all cases: log2 fold change, soluble protein after heating vs DMSO (PISA); higher = thermal stabilisation; K562 lysate, 10 uM; active = over 0.2 and 3.5 SD of the protein, either way, in both replicates (recomputed)
alvocidib = compound: CN1CC[C@H](c2c(O)cc(O)c3c(=O)cc(-c4ccccc4Cl)oc23)[C@H](O)C1 [alvocidib]
In short: (§1)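 To prepare the extract, K562 pellets were dounce-homogenised in PBS pH 7.4 with 1 mM MgCl2, giving crude material at 1 mg/mL protein. This was treated with 10 μM compound for 30 min, then heated in aliquots for 3 min over 48°C-58°C before pooling and addition of NP-40 to 0.5% at 4°C. Centrifugation at 21,000xg for 90 min left soluble protein in the supernatant, which TMTpro 16plex LC-MS/MS quantified with equalised channel sums. Results are log-two fold changes in thermal stability compared with solvent controls, from duplicates.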

Amino acid sequences for entries named in this document (tags omitted). A change or cut given only in a name is not applied to a line headed by its entry.
UniProt Q8WUY8: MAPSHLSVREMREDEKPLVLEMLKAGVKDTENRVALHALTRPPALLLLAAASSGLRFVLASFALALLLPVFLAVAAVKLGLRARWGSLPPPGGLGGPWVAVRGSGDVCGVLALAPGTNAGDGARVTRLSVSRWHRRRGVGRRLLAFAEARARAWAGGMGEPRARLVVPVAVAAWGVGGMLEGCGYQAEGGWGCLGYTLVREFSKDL
UniProt P10244: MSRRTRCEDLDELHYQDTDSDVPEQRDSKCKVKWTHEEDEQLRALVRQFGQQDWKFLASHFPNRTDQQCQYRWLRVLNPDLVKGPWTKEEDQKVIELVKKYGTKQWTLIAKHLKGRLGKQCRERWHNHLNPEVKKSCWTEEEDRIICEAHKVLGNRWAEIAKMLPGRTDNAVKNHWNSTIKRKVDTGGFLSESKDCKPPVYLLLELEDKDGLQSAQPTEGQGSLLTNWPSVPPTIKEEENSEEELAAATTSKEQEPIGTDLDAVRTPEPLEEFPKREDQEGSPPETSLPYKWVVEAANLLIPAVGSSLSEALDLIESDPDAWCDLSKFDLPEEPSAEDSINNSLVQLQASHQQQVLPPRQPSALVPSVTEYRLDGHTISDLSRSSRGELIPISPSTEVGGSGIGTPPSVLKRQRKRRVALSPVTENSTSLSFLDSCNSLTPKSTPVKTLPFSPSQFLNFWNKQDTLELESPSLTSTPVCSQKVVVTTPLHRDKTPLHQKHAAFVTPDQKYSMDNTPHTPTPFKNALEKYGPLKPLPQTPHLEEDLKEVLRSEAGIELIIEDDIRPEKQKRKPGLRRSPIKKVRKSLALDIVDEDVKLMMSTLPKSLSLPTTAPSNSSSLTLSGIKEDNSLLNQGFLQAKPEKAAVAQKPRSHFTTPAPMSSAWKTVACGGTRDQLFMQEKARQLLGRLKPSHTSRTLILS
UniProt Q8IVL1: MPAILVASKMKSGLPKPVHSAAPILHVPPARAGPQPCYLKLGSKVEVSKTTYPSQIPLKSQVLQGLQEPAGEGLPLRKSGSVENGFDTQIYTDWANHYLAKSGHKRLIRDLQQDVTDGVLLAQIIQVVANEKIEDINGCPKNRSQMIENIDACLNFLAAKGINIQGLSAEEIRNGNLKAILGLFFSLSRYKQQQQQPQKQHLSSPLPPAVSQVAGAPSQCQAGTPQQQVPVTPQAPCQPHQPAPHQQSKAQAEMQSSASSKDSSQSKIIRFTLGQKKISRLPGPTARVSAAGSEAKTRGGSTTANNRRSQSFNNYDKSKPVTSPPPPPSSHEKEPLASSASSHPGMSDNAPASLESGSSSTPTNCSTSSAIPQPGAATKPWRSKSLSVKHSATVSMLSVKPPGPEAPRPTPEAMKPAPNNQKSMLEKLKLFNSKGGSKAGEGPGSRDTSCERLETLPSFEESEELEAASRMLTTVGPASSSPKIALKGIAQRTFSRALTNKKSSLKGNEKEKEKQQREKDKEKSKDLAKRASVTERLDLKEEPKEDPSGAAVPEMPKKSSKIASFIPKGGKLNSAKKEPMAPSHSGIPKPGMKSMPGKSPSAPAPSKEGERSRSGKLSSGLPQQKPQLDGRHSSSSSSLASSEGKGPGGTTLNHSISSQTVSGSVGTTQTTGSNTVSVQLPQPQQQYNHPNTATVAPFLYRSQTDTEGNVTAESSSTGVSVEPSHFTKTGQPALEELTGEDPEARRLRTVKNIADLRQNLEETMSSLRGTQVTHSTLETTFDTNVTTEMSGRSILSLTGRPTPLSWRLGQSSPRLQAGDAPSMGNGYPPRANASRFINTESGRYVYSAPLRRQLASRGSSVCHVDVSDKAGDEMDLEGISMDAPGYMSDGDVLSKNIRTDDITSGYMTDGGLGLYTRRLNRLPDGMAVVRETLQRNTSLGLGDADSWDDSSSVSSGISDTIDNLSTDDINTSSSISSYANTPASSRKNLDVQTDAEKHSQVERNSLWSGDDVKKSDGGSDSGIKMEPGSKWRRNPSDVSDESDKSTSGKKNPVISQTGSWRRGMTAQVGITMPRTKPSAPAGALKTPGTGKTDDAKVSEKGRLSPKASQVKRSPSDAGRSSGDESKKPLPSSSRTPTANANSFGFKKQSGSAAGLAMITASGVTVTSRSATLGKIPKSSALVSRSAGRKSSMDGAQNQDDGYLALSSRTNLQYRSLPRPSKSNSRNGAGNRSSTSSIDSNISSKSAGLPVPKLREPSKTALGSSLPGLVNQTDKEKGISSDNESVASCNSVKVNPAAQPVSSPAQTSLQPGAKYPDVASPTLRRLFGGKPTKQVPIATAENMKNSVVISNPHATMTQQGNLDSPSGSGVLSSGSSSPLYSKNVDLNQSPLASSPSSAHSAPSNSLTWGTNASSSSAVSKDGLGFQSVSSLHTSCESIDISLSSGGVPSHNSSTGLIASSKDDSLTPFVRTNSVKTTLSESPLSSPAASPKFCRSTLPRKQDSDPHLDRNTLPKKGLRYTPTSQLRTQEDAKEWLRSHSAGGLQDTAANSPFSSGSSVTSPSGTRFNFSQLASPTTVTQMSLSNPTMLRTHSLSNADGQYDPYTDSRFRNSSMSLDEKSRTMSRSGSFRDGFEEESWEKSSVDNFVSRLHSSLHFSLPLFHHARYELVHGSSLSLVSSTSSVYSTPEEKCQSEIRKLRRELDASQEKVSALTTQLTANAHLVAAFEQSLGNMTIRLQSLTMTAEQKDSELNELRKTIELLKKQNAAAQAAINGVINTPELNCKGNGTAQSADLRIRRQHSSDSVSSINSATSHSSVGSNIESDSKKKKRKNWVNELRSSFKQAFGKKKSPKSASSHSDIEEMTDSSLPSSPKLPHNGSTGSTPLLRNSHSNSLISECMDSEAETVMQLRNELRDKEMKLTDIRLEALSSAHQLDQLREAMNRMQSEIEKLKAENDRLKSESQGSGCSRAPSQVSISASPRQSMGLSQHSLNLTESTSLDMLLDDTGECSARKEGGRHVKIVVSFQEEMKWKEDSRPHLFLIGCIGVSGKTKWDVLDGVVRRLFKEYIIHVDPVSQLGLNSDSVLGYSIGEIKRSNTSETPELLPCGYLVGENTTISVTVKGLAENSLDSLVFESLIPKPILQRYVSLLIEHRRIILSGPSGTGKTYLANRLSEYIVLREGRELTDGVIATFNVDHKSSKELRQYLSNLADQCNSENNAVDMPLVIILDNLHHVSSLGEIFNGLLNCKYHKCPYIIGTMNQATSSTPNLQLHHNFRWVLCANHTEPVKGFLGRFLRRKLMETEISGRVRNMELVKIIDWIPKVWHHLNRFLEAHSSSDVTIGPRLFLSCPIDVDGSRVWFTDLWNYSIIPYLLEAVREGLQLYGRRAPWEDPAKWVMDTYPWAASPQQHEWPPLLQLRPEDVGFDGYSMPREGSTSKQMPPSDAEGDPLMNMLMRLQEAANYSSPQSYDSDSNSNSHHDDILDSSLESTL
UniProt P62166, whole entry, looked up: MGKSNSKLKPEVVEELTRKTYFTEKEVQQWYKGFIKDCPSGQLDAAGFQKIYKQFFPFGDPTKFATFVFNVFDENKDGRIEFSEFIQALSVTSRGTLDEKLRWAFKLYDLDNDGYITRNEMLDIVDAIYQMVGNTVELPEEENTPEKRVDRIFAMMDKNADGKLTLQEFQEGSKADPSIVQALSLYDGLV
UniProt P43490: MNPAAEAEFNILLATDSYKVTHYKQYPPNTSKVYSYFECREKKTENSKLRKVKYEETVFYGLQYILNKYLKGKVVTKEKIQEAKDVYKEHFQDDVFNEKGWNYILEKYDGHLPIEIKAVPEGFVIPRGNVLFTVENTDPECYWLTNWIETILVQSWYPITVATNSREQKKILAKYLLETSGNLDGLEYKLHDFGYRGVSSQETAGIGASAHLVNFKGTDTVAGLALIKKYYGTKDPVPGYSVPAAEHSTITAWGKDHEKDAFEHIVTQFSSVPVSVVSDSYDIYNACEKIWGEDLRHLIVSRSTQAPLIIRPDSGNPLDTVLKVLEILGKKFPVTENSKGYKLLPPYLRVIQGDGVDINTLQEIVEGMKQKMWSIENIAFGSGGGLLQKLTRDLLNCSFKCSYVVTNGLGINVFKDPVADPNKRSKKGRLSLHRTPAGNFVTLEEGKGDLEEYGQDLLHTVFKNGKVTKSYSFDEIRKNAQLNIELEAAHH
UniProt Q9Y6Q9, whole entry, looked up: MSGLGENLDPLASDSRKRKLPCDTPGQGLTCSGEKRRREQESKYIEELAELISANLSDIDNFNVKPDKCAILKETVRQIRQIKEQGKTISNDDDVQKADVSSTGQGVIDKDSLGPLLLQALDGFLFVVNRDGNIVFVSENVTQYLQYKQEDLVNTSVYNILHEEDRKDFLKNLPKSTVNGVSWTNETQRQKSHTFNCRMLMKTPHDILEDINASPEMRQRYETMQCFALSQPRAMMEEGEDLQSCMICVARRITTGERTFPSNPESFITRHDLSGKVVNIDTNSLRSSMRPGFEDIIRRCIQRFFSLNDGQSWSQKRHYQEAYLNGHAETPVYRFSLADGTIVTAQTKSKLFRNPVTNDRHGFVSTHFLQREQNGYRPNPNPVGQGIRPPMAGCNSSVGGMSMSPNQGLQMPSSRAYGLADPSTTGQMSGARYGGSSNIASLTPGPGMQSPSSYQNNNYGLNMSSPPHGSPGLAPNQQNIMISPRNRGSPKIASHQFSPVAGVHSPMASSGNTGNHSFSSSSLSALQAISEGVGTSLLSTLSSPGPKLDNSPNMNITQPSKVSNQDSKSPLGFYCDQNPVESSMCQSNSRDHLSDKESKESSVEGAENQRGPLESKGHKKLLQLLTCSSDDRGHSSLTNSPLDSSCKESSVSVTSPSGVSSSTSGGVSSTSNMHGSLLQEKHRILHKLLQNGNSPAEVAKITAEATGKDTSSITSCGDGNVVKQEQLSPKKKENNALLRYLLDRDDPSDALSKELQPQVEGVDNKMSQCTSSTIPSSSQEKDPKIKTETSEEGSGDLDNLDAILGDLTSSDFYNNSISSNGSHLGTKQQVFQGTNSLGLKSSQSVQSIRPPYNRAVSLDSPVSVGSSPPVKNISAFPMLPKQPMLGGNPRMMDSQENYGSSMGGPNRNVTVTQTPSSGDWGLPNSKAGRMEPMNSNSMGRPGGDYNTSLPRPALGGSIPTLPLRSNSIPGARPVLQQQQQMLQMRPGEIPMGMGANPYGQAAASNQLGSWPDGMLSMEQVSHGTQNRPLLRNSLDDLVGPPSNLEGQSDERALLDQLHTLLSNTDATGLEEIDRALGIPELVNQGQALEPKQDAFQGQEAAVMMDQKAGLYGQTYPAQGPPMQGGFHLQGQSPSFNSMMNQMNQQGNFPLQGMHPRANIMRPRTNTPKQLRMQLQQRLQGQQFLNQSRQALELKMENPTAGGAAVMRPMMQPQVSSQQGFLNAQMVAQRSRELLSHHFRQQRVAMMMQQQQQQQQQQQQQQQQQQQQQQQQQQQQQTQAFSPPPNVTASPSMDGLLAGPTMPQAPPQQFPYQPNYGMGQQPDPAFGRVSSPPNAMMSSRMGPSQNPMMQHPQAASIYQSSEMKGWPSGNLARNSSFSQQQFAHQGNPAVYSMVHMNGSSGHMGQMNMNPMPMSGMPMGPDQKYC
UniProt Q6ZVX7: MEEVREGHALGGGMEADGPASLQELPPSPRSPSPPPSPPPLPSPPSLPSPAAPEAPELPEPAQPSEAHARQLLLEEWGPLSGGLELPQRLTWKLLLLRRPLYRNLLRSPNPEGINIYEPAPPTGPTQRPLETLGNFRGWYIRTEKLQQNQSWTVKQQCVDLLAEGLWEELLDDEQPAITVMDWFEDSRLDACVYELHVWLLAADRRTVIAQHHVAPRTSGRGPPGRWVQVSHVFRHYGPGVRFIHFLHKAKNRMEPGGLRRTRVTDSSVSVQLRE
UniProt Q8N6N6: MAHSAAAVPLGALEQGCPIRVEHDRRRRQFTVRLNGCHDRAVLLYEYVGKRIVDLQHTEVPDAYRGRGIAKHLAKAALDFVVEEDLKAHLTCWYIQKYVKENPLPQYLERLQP
UniProt Q969V3: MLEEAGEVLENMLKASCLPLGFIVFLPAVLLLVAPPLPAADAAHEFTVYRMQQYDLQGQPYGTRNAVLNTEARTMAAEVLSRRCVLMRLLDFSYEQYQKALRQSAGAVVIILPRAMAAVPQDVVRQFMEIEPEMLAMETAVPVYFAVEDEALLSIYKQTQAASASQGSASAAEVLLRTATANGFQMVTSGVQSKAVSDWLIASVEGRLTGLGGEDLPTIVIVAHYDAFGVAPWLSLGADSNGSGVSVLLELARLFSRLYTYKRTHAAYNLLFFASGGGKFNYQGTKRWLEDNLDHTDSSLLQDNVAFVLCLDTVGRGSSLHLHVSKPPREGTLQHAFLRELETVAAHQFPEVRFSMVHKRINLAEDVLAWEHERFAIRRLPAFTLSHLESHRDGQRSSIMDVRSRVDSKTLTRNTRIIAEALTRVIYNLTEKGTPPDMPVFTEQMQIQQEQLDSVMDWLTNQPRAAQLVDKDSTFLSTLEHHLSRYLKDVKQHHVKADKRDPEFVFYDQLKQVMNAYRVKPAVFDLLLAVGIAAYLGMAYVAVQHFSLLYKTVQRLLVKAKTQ

Tubastatin A = compound: CN1CCc2c(c3ccccc3n2Cc2ccc(C(=O)NO)cc2)C1 [Tubastatin A]
In short: as §1

[1] = compound: CNC(=O)C1=CC=CC=C1NC2=NC(=NC=C2Cl)NC3=C(C=C(C=C3)N4CCOCC4)OC
In short: as §1

defactinib = compound: CNC(=O)c1ccc(Nc2ncc(C(F)(F)F)c(NCc3nccnc3N(C)S(C)(=O)=O)n2)cc1 [defactinib]
In short: as §1

[2] = compound: CNc1nc(-c2ccc3c(N)n[nH]c3c2)cc(N2C[C@@H](C(=O)NC3CCCCC3)CC[C@H]2C)n1
In short: as §1

encorafenib = compound: COC(=O)N[C@@H](C)CNc1nccc(-c2cn(C(C)C)nc2-c2cc(Cl)cc(NS(C)(=O)=O)c2F)n1 [encorafenib]
In short: as §1

[3] = compound: COC(=O)[C@H](CCSC)NC(=O)C1=C(C=C(C=C1)NC[C@H](CS)N)C2=CC=CC=C2
In short: as §1

crizotinib = compound: C[C@@H](Oc1cc(-c2cnn(C3CCNCC3)c2)cnc1N)c1c(Cl)ccc(F)c1Cl [crizotinib]
In short: as §1

[4] = compound: C[C@H](C1=CC=C(C=C1)C(=O)NC2=C3C=CNC3=NC=C2)N
In short: as §1

duvelisib = compound: C[C@H](Nc1ncnc2nc[nH]c12)c1cc2cccc(Cl)c2c(=O)n1-c1ccccc1 [duvelisib]
In short: as §1

gandotinib = compound: Cc1cc(Nc2cc(CN3CCOCC3)c3nc(C)c(Cc4ccc(Cl)cc4F)n3n2)n[nH]1 [gandotinib]
In short: as §1

tozasertib = compound: Cc1cc(Nc2cc(N3CCN(C)CC3)nc(Sc3ccc(NC(=O)C4CC4)cc3)n2)n[nH]1 [tozasertib]
In short: as §1

doramapimod = compound: Cc1ccc(-n2nc(C(C)(C)C)cc2NC(=O)Nc2ccc(OCCN3CCOCC3)c3ccccc23)cc1 [doramapimod]
In short: as §1

[5] = compound: Cc1cccc(CC(=O)N2CCc3c2ccc(-c2cn(C)c4ncnc(N)c24)c3F)n1
In short: as §1

alisertib = compound: COc1cc(Nc2ncc3c(n2)-c2ccc(Cl)cc2C(c2c(F)cccc2OC)=NC3)ccc1C(=O)O [alisertib]
In short: as §1

[6] = compound: COc1cc2nc(-c3cc(F)ccc3O)nc(N[C@@H]3CNC[C@H]3C(C)(C)O)c2cc1OC
In short: as §1

gefitinib = compound: COc1cc2ncnc(Nc3ccc(F)c(Cl)c3)c2cc1OCCCN1CCOCC1 [gefitinib]
In short: as §1

lapatinib = compound: CS(=O)(=O)CCNCc1ccc(-c2ccc3ncnc(Nc4ccc(OCc5cccc(F)c5)c(Cl)c4)c3c2)o1 [lapatinib]
In short: as §1

pictilisib = compound: CS(=O)(=O)N1CCN(Cc2cc3nc(-c4cccc5[nH]ncc45)nc(N4CCOCC4)c3s2)CC1 [pictilisib]
In short: as §1

bafetinib = compound: Cc1ccc(NC(=O)c2ccc(CN3CC[C@H](N(C)C)C3)c(C(F)(F)F)c2)cc1Nc1nccc(-c2cncnc2)n1 [bafetinib]
In short: as §1

Measured: log2 fold change

NAT14 (UniProt Q8WUY8)
inactive: alvocidib -0.111 | Tubastatin A -0.145 | [1] 0.025 | defactinib 0.088 | [2] 0.051 | encorafenib 0.158 | [3] 0.306 | crizotinib -0.096 | [4] -0.035 | duvelisib -0.059 | gandotinib 0.024 | tozasertib -0.067 | doramapimod -0.118 | [5] 0.069

MYH3 (UniProt P11055)
inactive: alvocidib 0.045 | Tubastatin A -0.017 | [1] 0.152 | defactinib -0.111 | [2] -0.325 | [4] 0.145 | duvelisib 0.106 | gandotinib -0.224 | [5] -0.208

MYBL2 (UniProt P10244)
inactive: alvocidib 0 | Tubastatin A -0.15 | [1] 0.045 | defactinib 0.113 | [2] -0.016 | encorafenib 0.088 | [3] -0.023 | crizotinib -0.018 | [4] 0.181 | duvelisib -0.011 | gandotinib -0.286 | tozasertib 0.001 | doramapimod 0.017 | [5] -0.184

NAV2 (UniProt Q8IVL1)
inactive: alvocidib -0.446 | Tubastatin A 0.131 | encorafenib -0.325 | [3] -0.081 | alisertib -0.126 | [6] -0.171 | gefitinib 0.095 | lapatinib -0.075 | pictilisib -0.567 | [4] -0.554 | gandotinib 0.249 | tozasertib 0.038 | bafetinib -0.486 | [5] 0.816

NCS1 (UniProt P62166)
inactive: alvocidib -0.055 | Tubastatin A 0.069 | [1] 0.007 | defactinib 0.046 | [2] -0.083 | encorafenib 0.001 | [3] 0.012 | alisertib -0.018 | [6] 0.016 | gefitinib -0.015 | pictilisib -0.143 | crizotinib 0.029 | [4] -0.172 | duvelisib 0.07 | gandotinib 0.088 | tozasertib 0.009 | doramapimod -0.047 | bafetinib -0.029 | [5] 0.05

NAMPT (UniProt P43490)
inactive: alvocidib 0.052 | Tubastatin A 0.053 | [1] 0.005 | defactinib 0.001 | [2] -0.018 | encorafenib -0.039 | [3] -0.049 | alisertib 0.011 | [6] 0.008 | gefitinib 0.062 | lapatinib -0.029 | pictilisib 0.022 | crizotinib 0.017 | [4] -0.013 | duvelisib -0.001 | gandotinib -0.011 | tozasertib -0.002 | doramapimod -0.007 | bafetinib 0.053 | [5] -0.052

NARS2 (UniProt Q96I59)
inactive: alvocidib 0.013 | Tubastatin A -0.157 | [1] -0.046 | defactinib 0.014 | [2] -0.04 | encorafenib -0.01 | [3] 0.039 | alisertib -0.006 | [6] -0.01 | gefitinib -0.016 | lapatinib 0.039 | pictilisib -0.132 | crizotinib -0.034 | [4] 0.039 | duvelisib -0.002 | gandotinib -0.058 | tozasertib 0.013 | doramapimod -0.01 | bafetinib -0.053 | [5] 0.024

NCOA3 (UniProt Q9Y6Q9)
inactive: alvocidib 0.009 | Tubastatin A 0.016 | [1] 0.003 | defactinib 0.002 | [2] 0.025 | encorafenib 0.079 | [3] -0.026 | alisertib 0 | [6] -0.016 | gefitinib 0.077 | lapatinib 0.044 | pictilisib -0.022 | crizotinib 0.027 | [4] 0.017 | duvelisib -0.008 | gandotinib 0.007 | tozasertib 0.098 | doramapimod 0.008 | bafetinib -0.015 | [5] -0.011

Taken from above (three entries):
NAV2 (UniProt Q8IVL1)
inactive: alvocidib -0.446 | Tubastatin A 0.131 | encorafenib -0.325 | [3] -0.081 | alisertib -0.126 | [6] -0.171 | gefitinib 0.095 | lapatinib -0.075 | pictilisib -0.567 | [4] -0.554 | gandotinib 0.249 | tozasertib 0.038 | bafetinib -0.486 | [5] 0.816

NCS1 (UniProt P62166)
inactive: alvocidib -0.055 | Tubastatin A 0.069 | [1] 0.007 | defactinib 0.046 | [2] -0.083 | encorafenib 0.001 | [3] 0.012 | alisertib -0.018 | [6] 0.016 | gefitinib -0.015 | pictilisib -0.143 | crizotinib 0.029 | [4] -0.172 | duvelisib 0.07 | gandotinib 0.088 | tozasertib 0.009 | doramapimod -0.047 | bafetinib -0.029 | [5] 0.05

NAMPT (UniProt P43490)
inactive: alvocidib 0.052 | Tubastatin A 0.053 | [1] 0.005 | defactinib 0.001 | [2] -0.018 | encorafenib -0.039 | [3] -0.049 | alisertib 0.011 | [6] 0.008 | gefitinib 0.062 | lapatinib -0.029 | pictilisib 0.022 | crizotinib 0.017 | [4] -0.013 | duvelisib -0.001 | gandotinib -0.011 | tozasertib -0.002 | doramapimod -0.007 | bafetinib 0.053 | [5] -0.052

(next part)

NBAS (UniProt A2RRP1)
inactive: alvocidib 0.032 | Tubastatin A -0.161 | [1] 0.012 | defactinib 0 | [2] -0.017 | encorafenib 0.014 | [3] 0.069 | alisertib 0.048 | [6] 0.033 | gefitinib -0.042 | lapatinib 0 | pictilisib -0.027 | crizotinib -0.003 | [4] -0.037 | duvelisib -0.032 | gandotinib -0.096 | tozasertib 0.082 | doramapimod 0.003 | bafetinib -0.069 | [5] 0.034

NCCRP1 (UniProt Q6ZVX7)
inactive: alvocidib 0.14 | Tubastatin A -0.083 | [2] -0.515 | [6] -0.102 | lapatinib 0.198 | pictilisib 0.504 | crizotinib -0.127 | [4] 0.551 | duvelisib -0.31 | gandotinib 0.382 | doramapimod -0.096 | bafetinib -0.012 | [5] -0.539

NATD1 (UniProt Q8N6N6)
inactive: alvocidib -0.023 | Tubastatin A 0.084 | [1] 0.027 | defactinib -0.074 | [2] 0.031 | encorafenib 0.042 | [3] -0.27 | alisertib 0.005 | gefitinib 0.02 | pictilisib -0.097 | crizotinib -0.039 | [4] -0.076 | duvelisib 0.085 | gandotinib -0.026 | tozasertib 0.228 | doramapimod 0.028 | bafetinib 0.052 | [5] 0.025

NAA15, A0A0B4J1W3
inactive: alvocidib -0.001 | Tubastatin A -0.104 | [1] -0.031 | defactinib 0.018 | [2] -0.054 | encorafenib 0.036 | [3] 0.04 | [6] -0.032 | lapatinib -0.023 | pictilisib 0.001 | crizotinib 0.007 | [4] 0.013 | duvelisib 0.019 | gandotinib -0.1 | tozasertib -0.053 | doramapimod -0.042 | bafetinib -0.016 | [5] 0.012

NCLN isoform 2 (UniProt Q969V3)
inactive: Tubastatin A -0.219 | defactinib 0.124 | encorafenib -0.165 | [3] -0.08 | crizotinib -0.234 | tozasertib 0.083 | doramapimod -0.217

NACA (UniProt F8VNW4)
inactive: [6] -0.014 | lapatinib 0.252

NCF4 (UniProt Q15080)
inactive: alvocidib -0.089 | encorafenib -0.024 | [3] 0.08 | pictilisib -0.107 | crizotinib -0.151 | [4] -0.421 | gandotinib 0.203 | tozasertib -0.032 | doramapimod -0.032 | bafetinib -0.294 | [5] 0.197

MYH2 (UniProt Q9UKX2)
inactive: [2] -0.078 | pictilisib -1.94 | duvelisib 0.072 | bafetinib -0.132

Reference: the supplement of paper PMC10849652
